In paper PMC10143966, “The Replicative DnaE Polymerase of Bacillus subtilis Recruits the Glycolytic Pyruvate Kinase (PykA) When Bound to Primed DNA Templates” (Life, 2023):
Results are given in words; binding and its absence hold for the method and conditions named.

Target: T1, B. subtilis DnaE polymerase (B. subtilis, UniProt O34623 1-1115)
T1 construct: DnaE DNA polymerase, Bacillus subtilis; also called replicative DnaE polymerase; lagging strand DNA polymerase
T1 sequence (looked up): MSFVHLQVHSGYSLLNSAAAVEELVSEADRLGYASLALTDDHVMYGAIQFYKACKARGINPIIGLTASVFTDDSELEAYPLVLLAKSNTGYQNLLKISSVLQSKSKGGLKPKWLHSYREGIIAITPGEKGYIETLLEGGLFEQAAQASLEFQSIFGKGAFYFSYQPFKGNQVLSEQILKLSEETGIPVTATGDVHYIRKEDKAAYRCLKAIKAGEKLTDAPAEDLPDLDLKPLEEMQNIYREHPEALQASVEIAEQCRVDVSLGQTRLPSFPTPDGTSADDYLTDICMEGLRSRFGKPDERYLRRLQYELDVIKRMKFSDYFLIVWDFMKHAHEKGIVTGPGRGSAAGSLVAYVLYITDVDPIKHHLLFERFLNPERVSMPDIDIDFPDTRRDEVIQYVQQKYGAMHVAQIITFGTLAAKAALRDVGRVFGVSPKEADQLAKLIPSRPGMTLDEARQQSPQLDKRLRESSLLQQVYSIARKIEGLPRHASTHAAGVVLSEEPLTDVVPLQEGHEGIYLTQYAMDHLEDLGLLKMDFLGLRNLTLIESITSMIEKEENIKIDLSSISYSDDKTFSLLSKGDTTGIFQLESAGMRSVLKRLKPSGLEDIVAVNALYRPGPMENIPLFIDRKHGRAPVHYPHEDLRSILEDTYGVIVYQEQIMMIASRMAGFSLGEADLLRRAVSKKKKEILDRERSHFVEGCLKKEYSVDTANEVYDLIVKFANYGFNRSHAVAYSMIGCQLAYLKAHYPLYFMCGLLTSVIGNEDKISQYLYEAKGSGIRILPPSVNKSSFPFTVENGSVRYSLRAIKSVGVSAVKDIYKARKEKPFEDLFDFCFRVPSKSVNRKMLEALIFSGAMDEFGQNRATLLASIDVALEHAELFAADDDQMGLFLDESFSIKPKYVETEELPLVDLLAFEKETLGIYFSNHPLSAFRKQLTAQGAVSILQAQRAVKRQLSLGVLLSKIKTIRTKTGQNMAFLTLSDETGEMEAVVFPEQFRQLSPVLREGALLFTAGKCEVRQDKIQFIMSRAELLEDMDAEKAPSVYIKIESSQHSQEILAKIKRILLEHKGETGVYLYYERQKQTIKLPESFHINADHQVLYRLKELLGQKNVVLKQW
Experiment: condition: only in the absence of DNA (DnaE immobilised directly on the chip surface); SPR; absence of DNA; DnaE immobilised on a C1 sensor chip by EDC/NHS chemistry, PykA added; Biacore T200; both purified

B1: B. subtilis pyruvate kinase PykA, full-length, wild type (enzyme, UniProt P80885 1-585, looked up)
chain: MRKTKIVCTIGPASESIEMLTKLMESGMNVARLNFSHGDFEEHGARIKNIREASKKLGKNVGILLDTKGPEIRTHTMENGGIELETGKELIISMDEVVGTTDKISVTYEGLVHDVEQGSTILLDDGLIGLEVLDVDAAKREIKTKVLNNGTLKNKKGVNVPGVSVNLPGITEKDARDIVFGIEQGVDFIAPSFIRRSTDVLEIRELLEEHNAQDIQIIPKIENQEGVDNIDAILEVSDGLMVARGDLGVEIPAEEVPLVQKELIKKCNALGKPVITATQMLDSMQRNPRPTRAEASDVANAIFDGTDAIMLSGETAAGSYPVEAVQTMHNIASRSEEALNYKEILSKRRDQVGMTITDAIGQSVAHTAINLNAAAIVTPTESGHTARMIAKYRPQAPIVAVTVNDSISRKLALVSGVFAESGQNASSTDEMLEDAVQKSLNSGIVKHGDLIVITAGTVGESGTTNLMKVHTVGDIIAKGQGIGRKSAYGPVVVAQNAKEAEQKMTDGAVLVTKSTDRDMIASLEKASALITEEGGLTSHAAVVGLSLGIPVIVGLENATSILTDGQDITVDASRGAVYQGRASVL
notes: PykA pyruvate kinase, Bacillus subtilis; 1755 bp pykA fragment amplified from genomic DNA, cloned into p2CT; the same vector gives an N-terminal tag for PEPut; Tetramer: legends give 16 nM monomers as 4 nM tetramers; also called full-length PykA; wild-type PykA; source: E. coli Rosetta (DE3), purified (HisTrap IMAC, TEV cleavage, reverse IMAC, Superdex 200 gel filtration)
binding: no binding
